The values that follow come from publication PMC6312923 (Life Science Alliance, 2018).

The chains behind the UniProt entries cited, without tags or fusion partners. Where a name states a change or a piece, a line headed by the entry shows the natural chain unless it says otherwise. A line that says so, or that is headed by a name, gives the form on record, which may keep a tag or linker. Residues count along the entry.
UniProt Q9NZJ0: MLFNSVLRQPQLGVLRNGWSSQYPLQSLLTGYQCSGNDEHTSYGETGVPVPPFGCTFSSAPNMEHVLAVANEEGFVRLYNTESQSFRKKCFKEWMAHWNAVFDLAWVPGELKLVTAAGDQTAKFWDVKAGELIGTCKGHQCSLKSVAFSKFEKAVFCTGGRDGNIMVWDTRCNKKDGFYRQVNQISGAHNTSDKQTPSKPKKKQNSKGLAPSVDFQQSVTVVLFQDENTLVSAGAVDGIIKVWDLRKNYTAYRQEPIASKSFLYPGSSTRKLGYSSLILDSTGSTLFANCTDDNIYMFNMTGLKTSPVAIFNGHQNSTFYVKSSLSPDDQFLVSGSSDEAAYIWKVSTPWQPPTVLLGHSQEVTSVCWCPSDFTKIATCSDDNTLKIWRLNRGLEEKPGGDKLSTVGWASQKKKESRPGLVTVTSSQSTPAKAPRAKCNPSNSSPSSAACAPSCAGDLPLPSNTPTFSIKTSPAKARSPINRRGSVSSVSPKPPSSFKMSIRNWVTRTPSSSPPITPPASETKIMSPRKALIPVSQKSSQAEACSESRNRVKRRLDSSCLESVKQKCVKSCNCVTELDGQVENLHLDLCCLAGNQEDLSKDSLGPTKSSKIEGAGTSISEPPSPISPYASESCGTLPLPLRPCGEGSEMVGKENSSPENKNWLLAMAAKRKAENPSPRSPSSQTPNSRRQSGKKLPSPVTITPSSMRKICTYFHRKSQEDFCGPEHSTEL
HA-Cdt2^1–417-3FLAG: residues 1-417 of Q9NZJ0
3FLAG-3NLS-myc-Cdt2^390–730: residues 390-730 of Q9NZJ0
HA-Cdt2^PIP-3A-3FLAG (Q9NZJ0, form named): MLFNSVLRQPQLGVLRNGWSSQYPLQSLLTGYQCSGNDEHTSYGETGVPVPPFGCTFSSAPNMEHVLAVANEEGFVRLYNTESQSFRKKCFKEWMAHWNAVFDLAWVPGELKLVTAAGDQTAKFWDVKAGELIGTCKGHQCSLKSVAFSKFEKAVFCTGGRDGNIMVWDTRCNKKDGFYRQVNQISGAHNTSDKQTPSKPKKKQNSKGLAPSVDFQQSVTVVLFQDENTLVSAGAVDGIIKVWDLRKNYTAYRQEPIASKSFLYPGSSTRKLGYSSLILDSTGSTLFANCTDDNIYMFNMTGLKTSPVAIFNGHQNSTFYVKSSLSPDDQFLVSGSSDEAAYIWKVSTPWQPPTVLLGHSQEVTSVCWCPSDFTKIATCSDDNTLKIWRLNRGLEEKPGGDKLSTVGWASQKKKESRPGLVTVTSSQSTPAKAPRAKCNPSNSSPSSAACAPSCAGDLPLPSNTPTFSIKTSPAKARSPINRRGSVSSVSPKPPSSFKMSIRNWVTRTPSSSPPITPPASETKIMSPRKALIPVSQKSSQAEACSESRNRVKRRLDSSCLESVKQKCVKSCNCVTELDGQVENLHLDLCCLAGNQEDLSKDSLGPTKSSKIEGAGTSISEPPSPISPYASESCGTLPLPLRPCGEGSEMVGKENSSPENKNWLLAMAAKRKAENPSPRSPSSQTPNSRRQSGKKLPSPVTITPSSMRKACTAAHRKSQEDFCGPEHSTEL
UniProt Q16531: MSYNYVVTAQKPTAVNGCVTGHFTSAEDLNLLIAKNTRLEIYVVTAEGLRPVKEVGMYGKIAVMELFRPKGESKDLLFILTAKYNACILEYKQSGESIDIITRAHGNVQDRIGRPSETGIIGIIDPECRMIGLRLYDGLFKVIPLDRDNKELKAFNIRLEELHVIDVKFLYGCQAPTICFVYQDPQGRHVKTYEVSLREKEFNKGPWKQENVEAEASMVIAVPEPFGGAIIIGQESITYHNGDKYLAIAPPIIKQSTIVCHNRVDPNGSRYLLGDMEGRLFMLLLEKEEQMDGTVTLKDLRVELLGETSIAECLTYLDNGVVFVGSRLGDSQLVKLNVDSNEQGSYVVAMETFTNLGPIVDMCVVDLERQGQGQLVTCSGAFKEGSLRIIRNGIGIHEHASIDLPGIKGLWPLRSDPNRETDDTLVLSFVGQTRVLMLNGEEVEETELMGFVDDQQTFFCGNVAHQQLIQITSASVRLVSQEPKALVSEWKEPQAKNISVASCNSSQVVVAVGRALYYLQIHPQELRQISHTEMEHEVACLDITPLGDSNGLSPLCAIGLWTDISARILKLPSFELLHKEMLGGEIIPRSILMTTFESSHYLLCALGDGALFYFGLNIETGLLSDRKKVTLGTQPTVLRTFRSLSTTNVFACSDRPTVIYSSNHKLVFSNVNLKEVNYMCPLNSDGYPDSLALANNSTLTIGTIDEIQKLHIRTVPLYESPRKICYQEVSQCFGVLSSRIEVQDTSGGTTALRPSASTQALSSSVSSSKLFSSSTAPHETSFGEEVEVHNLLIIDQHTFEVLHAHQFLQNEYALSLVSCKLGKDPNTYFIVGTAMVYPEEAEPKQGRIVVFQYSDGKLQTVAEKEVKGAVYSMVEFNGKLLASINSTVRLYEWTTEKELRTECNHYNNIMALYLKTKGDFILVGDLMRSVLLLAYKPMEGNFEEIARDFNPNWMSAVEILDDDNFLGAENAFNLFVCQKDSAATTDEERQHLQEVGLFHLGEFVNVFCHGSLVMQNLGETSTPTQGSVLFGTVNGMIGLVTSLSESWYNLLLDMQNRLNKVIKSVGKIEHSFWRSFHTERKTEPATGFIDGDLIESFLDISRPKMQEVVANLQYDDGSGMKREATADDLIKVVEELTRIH
UniProt Q13619: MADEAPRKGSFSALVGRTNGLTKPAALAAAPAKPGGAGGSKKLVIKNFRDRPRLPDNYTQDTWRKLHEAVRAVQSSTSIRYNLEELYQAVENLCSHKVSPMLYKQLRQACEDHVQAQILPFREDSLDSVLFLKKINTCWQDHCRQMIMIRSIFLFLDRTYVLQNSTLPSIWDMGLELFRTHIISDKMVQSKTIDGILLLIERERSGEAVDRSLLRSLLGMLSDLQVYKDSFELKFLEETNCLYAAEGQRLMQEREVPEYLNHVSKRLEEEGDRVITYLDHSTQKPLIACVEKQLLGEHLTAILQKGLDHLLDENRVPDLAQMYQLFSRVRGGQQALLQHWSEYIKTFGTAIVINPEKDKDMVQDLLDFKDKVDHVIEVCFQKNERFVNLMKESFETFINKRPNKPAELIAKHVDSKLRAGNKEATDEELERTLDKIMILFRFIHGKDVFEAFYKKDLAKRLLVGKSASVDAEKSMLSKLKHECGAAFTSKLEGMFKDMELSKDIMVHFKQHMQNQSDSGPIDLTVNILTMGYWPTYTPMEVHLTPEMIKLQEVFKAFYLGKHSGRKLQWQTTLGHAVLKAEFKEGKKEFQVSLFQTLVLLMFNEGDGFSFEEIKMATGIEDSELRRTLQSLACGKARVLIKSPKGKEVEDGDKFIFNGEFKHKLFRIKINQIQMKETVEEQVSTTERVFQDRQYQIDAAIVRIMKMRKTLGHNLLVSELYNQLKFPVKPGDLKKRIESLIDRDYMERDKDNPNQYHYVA

Read-outs that look alike come from different tables or passages of the source. These are yes or no findings as the source states them, for the method shown. In cells and extracts the contact can be indirect. Some entries that bind do so weakly or less than the wild type.

For test [1], the target named is 3FLAG-3NLS-myc-Cdt2^390–730 (human) (UniProt Q9NZJ0). Kind of test: co-IP; HEK293 / HEK293T cells transfected with FLAG-tagged Cdt2 constructs, with or without UV (50 J/m^2); fixed with 0.02% formaldehyde 10 min, lysed in 0.1% Triton X-100 mCSK buffer (10 mM Pipes pH 7.9, 100 mM NaCl), sonicated; anti-FLAG magnetic beads 1 h at 4°C; blots for PCNA, DDB1, Cul4A ….
Test [2] deals with HA-Cdt2^1–417-3FLAG (human) (UniProt Q9NZJ0). Described as above.
The target of test [3] is HA-Cdt2^PIP-3A-3FLAG (human) (UniProt Q9NZJ0). The test is described as above.
For test [4], the target named is HA-Cdt2^WT(1–730)-3FLAG (human) (UniProt Q9NZJ0). Described as above.
Test [5] concerns the target Cdt2-3FLAG (WT), insect cells (human) (UniProt Q9NZJ0). The test can be described thus: co-IP; Sf21 cells co-infected with baculoviruses for Cdt2-3FLAG (WT or PIP-3A), DDB1, HA-Cul4 and His-myc-Rbx1; lysate in 0.5 M NaCl, 0.5% NP-40 buffer B, DEAE flowthrough, anti-FLAG resin, elution with 3FLAG peptide; Western blots for each protein; glycerol gradient. (In general: Immunoblotting shows a protein as a band on a membrane.)

Test [6] deals with Cdt2^PIP-3A-3FLAG, insect cells (human) (UniProt Q9NZJ0). The description is as above.
The target in test [7] is HA-Cdt2^WT(1–730)-3FLAG (human) (UniProt Q9NZJ0). Kind of test: co-IP; HEK293 / HEK293T cells transfected with FLAG-tagged Cdt2 constructs, with or without UV (50 J/m^2); fixed with 0.02% formaldehyde 10 min, lysed in 0.1% Triton X-100 mCSK buffer (10 mM Pipes pH 7.9, 100 mM NaCl), sonicated; anti-FLAG magnetic beads 1 h at 4°C; blots for PCNA, DDB1, Cul4A …. The source holds these as a separate data set.

Take “DDB1, endogenous (from UniProt Q16531 1-1140)”: the binding result is listed as “no binding” in test [1], “binds” in test [2], “binds” in test [3] and “binds” in test [4].
For “HA-Cul4A, insect cells (from UniProt Q13619 1-759)”, the binding result in test [5] and in test [6] was “binds” each time.
For the molecule “DDB1, insect cells (from UniProt Q16531 1-1140)”, the binding result in test [5] and in test [6] was “binds” throughout.
Consider “Cul4A, endogenous (from UniProt Q13619 1-759)”, for which the binding result in test [3] and in test [4] was “binds” each time.

B1: Cdt1-3FLAG (natural protein, human, UniProt Q9H211 1-546, looked up)
chain: MEQRRVTDFFARRRPGPPRIAPPKLACRTPSPARPALRAPASATSGSRKRARPPAAPGRDQARPPARRRLRLSVDEVSSPSTPEAPDIPACPSPGQKIKKSTPAAGQPPHLTSAQDQDTISELASCLQRARELGARVRALKASAQDAGESCTPEAEGRPEEPCGEKAPAYQRFHALAQPGLPGLVLPYKYQVLAEMFRSMDTIVGMLHNRSETPTFAKVQRGVQDMMRRRFEECNVGQIKTVYPASYRFRQERSVPTFKDGTRRSDYQLTIEPLLEQEADGAAPQLTASRLLQRRQIFSQKLVEHVKEHHKAFLASLSPAMVVPEDQLTRWHPRFNVDEVPDIEPAALPQPPATEKLTTAQEVLARARNLISPRMEKALSQLALRSAAPSSPGSPRPALPATPPATPPAASPSALKGVSQDLLERIRAKEAQKQLAQMTRCPEQEQRLQRLERLPELARVLRSVFVSERKPALSMEVACARMVGSCCTIMSPGEMEKHLLLLSELLPDWLSLHRIRTDTYVKLDKAADLAHITARLAHQTRAEEGL
notes: Cdt1, human; also called FLAG-tagged Cdt1; Cdt1-3FLAG (WT); source: Sf21 insect cells (baculovirus), purified (DEAE flowthrough, anti-FLAG resin, 3× FLAG peptide elution); not shown: 3FLAG, C-terminal, kept
With B1, in test [7], the binding entry is “binds”.
